Reference: patent US10987336B2, “Method of preventing or treating side effect of tumor therapy” (priority 2018, dated 2021)
At least one compound was matched to its structure with a doubt left.

System: Calreticulin (CRT)
Assay: Western Blot expression level in HaCaT cells (Example 147)
Type: cell-based, human
Details: 24 hours, compared with the control group

Structure (SMILES): COC(=O)C1=C(C)NC(C)=C(C(=O)OC)C1c1ccccc1[N+](=O)[O-] [nifedipine]
- expression level of calreticulin (CRT), gray value analysis: increased significantly
